Variants at the background level are over-represented here.
Legend:
biotinyl-Trp-oxazolone = assay: self-aminoacylation, catalytic enhancement (BWO) (fold over background); higher = more active; k-Seq, kA / k0A0; sequences stand for … in GGGAAUGGAUCCACAUCUACGAAUUC…UUCACUGCAGACUUGACGAAGCUG
Method in brief: (§1)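 Catalytic enhancement equals the median kA over the uncatalyzed rate, the latter read from the low-activity peak of a bimodal Gaussian fit. Values of kA came from fitting each sequence's fraction reacted to a pseudo-first-order model, with 1000 bootstraps. Reacted RNA was captured with streptavidin and quantified by triplicate qPCR and Illumina sequencing after 90 minutes at room temperature with 2–1250 μM biotinyl-aminoacyl-oxazolone and 0.43 μM mutagenized RNA pools bearing a 21-nt variable region.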

biotinyl-Leu-oxazolone = assay: self-aminoacylation, catalytic enhancement (BLO) (fold over background); higher = more active; k-Seq, kA / k0A0; sequences stand for … in GGGAAUGGAUCCACAUCUACGAAUUC…UUCACUGCAGACUUGACGAAGCUG
Method in brief: as §1

biotinyl-Met-oxazolone = assay: self-aminoacylation, catalytic enhancement (BMO) (fold over background); higher = more active; k-Seq, kA / k0A0; sequences stand for … in GGGAAUGGAUCCACAUCUACGAAUUC…UUCACUGCAGACUUGACGAAGCUG
Method in brief: as §1

biotinyl-Val-oxazolone = assay: self-aminoacylation, catalytic enhancement (BVO) (fold over background); higher = more active; k-Seq, kA / k0A0; sequences stand for … in GGGAAUGGAUCCACAUCUACGAAUUC…UUCACUGCAGACUUGACGAAGCUG
Method in brief: as §1

biotinyl-Ile-oxazolone = assay: self-aminoacylation, catalytic enhancement (BIO) (fold over background); higher = more active; k-Seq, kA / k0A0; sequences stand for … in GGGAAUGGAUCCACAUCUACGAAUUC…UUCACUGCAGACUUGACGAAGCUG
Method in brief: as §1

Sequence	self-aminoacylation (biotinyl-Trp-oxazolone)	self-aminoacylation (biotinyl-Leu-oxazolone)	self-aminoacylation (biotinyl-Met-oxazolone)	self-aminoacylation (biotinyl-Val-oxazolone)	self-aminoacylation (biotinyl-Ile-oxazolone)
AAGCUUGCUUAUAGUCGCAAG [Fam3.1 aminoacylation ribozyme variant]	1.56	1.71	1.36	1.68	–
AGUCACCUAGGUCAUCAGGUG [Fam2.2 aminoacylation ribozyme variant]	1.82	–	1.96	–	1.61
AUACACCUAGGUCAUCGGCUG [Fam2.2 aminoacylation ribozyme variant]	1.28	–	–	1.54	1.86
AUGACCCUGGUCAUCGAGGGA [Fam2.1 aminoacylation ribozyme variant]	1.82	–	–	1.66	1.92
AUUCACCUACGUCAUCGGGGG [Fam2.2 aminoacylation ribozyme variant]	1.77	–	1.86	–	1.58
AUUCACCUAGAUAAUCGGGUG [Fam2.2 aminoacylation ribozyme variant]	1.95	–	–	1.37	1.39
AUUCACCUAGCUGAUCGGGUG [Fam2.2 aminoacylation ribozyme variant]	1.97	–	1.91	–	–
AUUCUCCUAGGUCAUCGGCUG [Fam2.2 aminoacylation ribozyme variant]	1.72	–	–	–	–
CCACAACUCAAGCAAUCGGUC [Fam1B.1 aminoacylation ribozyme variant]	1.97	1.61	1.48	–	1.81
CCACACUUCGAGCAAUCGGGC [Fam1B.1 aminoacylation ribozyme variant]	1.62	–	1.84	1.99	1.66
CCACACUUUAAGCAAUGGGUC [Fam1B.1 aminoacylation ribozyme variant]	–	0.618	0.686	0.613	0.696
CCACAGUUCAAACAAUCGGUC [Fam1B.1 aminoacylation ribozyme variant]	–	1.83	1.36	1.53	1.56
CCACUUCAAACAAUCGGUAUG [Fam1A.1 aminoacylation ribozyme variant]	–	1.14	0.823	0.871	0.877
CCACUUCAAACGAUCGGUCUG [Fam1A.1 aminoacylation ribozyme variant]	–	0.869	1.11	1.27	1.12
CCAGACUUCAAGGAAUCGGUC [Fam1B.1 aminoacylation ribozyme variant]	–	1.43	1.25	1.17	1.15
CCAUACUUCAAGCAAUCGGUA [Fam1B.1 aminoacylation ribozyme variant]	–	1.1	1.22	1.26	1.33
CCAUACUUCAAUCAAUCGGUC [Fam1B.1 aminoacylation ribozyme variant]	–	1.31	0.959	1.05	1.13
CCCCAAUUCAAGCAAUCGGUC [Fam1B.1 aminoacylation ribozyme variant]	–	1.82	1.79	1.83	1.89
CCCCACUUCAAGCAAUCCGUC [Fam1B.1 aminoacylation ribozyme variant]	–	1.02	1	1.6	1.62
CCGCACUUCAAUCAAUCGGUC [Fam1B.1 aminoacylation ribozyme variant]	–	2.03	1.26	1.62	1.27

Sequence	self-aminoacylation (biotinyl-Trp-oxazolone)	self-aminoacylation (biotinyl-Leu-oxazolone)	self-aminoacylation (biotinyl-Met-oxazolone)	self-aminoacylation (biotinyl-Val-oxazolone)	self-aminoacylation (biotinyl-Ile-oxazolone)
CCUCACUUCAAUCAAUCGGUC [Fam1B.1 aminoacylation ribozyme variant]	–	1.49	0.943	0.969	1.13
CUAAUUCAAACAAUCGGGCUG [Fam1A.1 aminoacylation ribozyme variant]	–	1.02	0.87	0.852	0.805
CUACACUUCAAGAAAUCGGUC [Fam1B.1 aminoacylation ribozyme variant]	–	0.798	0.702	0.725	0.622
CUACACUUCAAGGAAUCGGUC [Fam1B.1 aminoacylation ribozyme variant]	–	0.984	0.883	0.887	0.91
CUACUGCAAACAAUCGGCCUG [Fam1A.1 aminoacylation ribozyme variant]	–	2.27	2.1	2.27	1.59
CUACUGCAAACAUUCGGUCUG [Fam1A.1 aminoacylation ribozyme variant]	1.85	1.96	1.79	1.99	–
CUACUUAAAACAAUCGGUCCG [Fam1A.1 aminoacylation ribozyme variant]	–	0.908	1.12	0.835	0.878
CUACUUCAAACAAUCAGACUG [Fam1A.1 aminoacylation ribozyme variant]	–	0.631	0.54	0.656	0.584
CUACUUCAAACAAUCGGUGUG [Fam1A.1 aminoacylation ribozyme variant]	–	1.3	1.11	0.994	0.982
CUACUUCAAACCAUCGGUGUG [Fam1A.1 aminoacylation ribozyme variant]	–	1.52	1.11	1.1	1.08
CUACUUCAAAUAAUCGGUCUG [Fam1A.1 aminoacylation ribozyme variant]	–	1.05	0.836	0.864	0.898
CUACUUCAACCAAGCGGUCUG [Fam1A.1 aminoacylation ribozyme variant]	–	0.942	0.907	0.954	1.02
CUACUUCAACCAAUCGGUCUA [Fam1A.1 aminoacylation ribozyme variant]	–	0.86	0.853	0.994	1.02
CUACUUCAACCAAUCGGUUUG [Fam1A.1 aminoacylation ribozyme variant]	–	1.06	0.867	1.07	0.834
CUACUUCAAUCAAUCGGACUG [Fam1A.1 aminoacylation ribozyme variant]	–	0.599	0.691	0.678	0.717
CUACUUCAAUCAAUCGGCCUG [Fam1A.1 aminoacylation ribozyme variant]	–	2.56	1.41	1.74	1.64
CUACUUCAAUCAAUCGGUCCG [Fam1A.1 aminoacylation ribozyme variant]	–	1.2	0.762	0.876	0.917
CUACUUCAGACAAUCGUUCUG [Fam1A.1 aminoacylation ribozyme variant]	–	0.512	0.477	0.659	0.59
CUACUUGAAACAAUCGGCCUG [Fam1A.1 aminoacylation ribozyme variant]	–	1.45	1.96	1.68	1.84
CUAGUUCAAACAAUCGCUCUG [Fam1A.1 aminoacylation ribozyme variant]	–	0.798	0.827	0.934	0.832

Sequence	self-aminoacylation (biotinyl-Trp-oxazolone)	self-aminoacylation (biotinyl-Leu-oxazolone)	self-aminoacylation (biotinyl-Met-oxazolone)	self-aminoacylation (biotinyl-Val-oxazolone)	self-aminoacylation (biotinyl-Ile-oxazolone)
CUAGUUCAAACAAUCGGUCGG [Fam1A.1 aminoacylation ribozyme variant]	–	1.06	1.2	0.952	1.02
CUAGUUCAAUCAAUCGGUCUG [Fam1A.1 aminoacylation ribozyme variant]	–	0.924	0.767	0.91	0.812
CUAGUUCACACAAUCGGUCUG [Fam1A.1 aminoacylation ribozyme variant]	–	1.36	1.13	1.14	1.28
CUCCUUCAAACAAUCAGUCUG [Fam1A.1 aminoacylation ribozyme variant]	–	0.753	0.655	0.837	0.75
CUCCUUCAAACAAUCGGUCCG [Fam1A.1 aminoacylation ribozyme variant]	–	1.38	0.945	0.846	0.861
CUCCUUCAAACAAUCGGUCUU [Fam1A.1 aminoacylation ribozyme variant]	–	1.62	1.26	1.25	1.13
CUCCUUCAAACAAUCGGUGUG [Fam1A.1 aminoacylation ribozyme variant]	–	1.49	1.17	1.14	1.06
CUGCUUCAAACAAUCGGUCAG [Fam1A.1 aminoacylation ribozyme variant]	–	1.47	1.08	1.24	0.975
CUGCUUCCAACAAUCGGUCUG [Fam1A.1 aminoacylation ribozyme variant]	–	0.73	0.737	0.691	0.634
CUUCACCUAGGACAUCGGGUG [Fam2.2 aminoacylation ribozyme variant]	–	3.53	3.03	2.68	2.34
CUUCUUCAAACAAUCGGUCUA [Fam1A.1 aminoacylation ribozyme variant]	–	0.721	0.747	0.802	0.776
CUUCUUCAAUCAAUCGGUCUG [Fam1A.1 aminoacylation ribozyme variant]	–	1.21	0.986	0.956	0.975
GUACUUCAAACAAUCGGUCCG [Fam1A.1 aminoacylation ribozyme variant]	–	1.68	1.39	1.24	1.38
GUACUUCAAACAAUCGGUCUC [Fam1A.1 aminoacylation ribozyme variant]	–	2.06	1.65	1.4	1.5
UAGUUUGCUAACAGUCGCAAG [Fam3.1 aminoacylation ribozyme variant]	–	1.35	1.5	1.62	1.78
UCACACUUCAAGUAAUCGGUC [Fam1B.1 aminoacylation ribozyme variant]	–	0.895	0.755	0.901	0.924
UCACUCUUCAAGCAAUCGGUC [Fam1B.1 aminoacylation ribozyme variant]	–	1.36	0.916	1.19	0.912
UCACUUCAAACAAUCGGUCUG [Fam1A.1 aminoacylation ribozyme variant]	–	2.11	1.52	1.36	1.4
UUACUUCAACCAAUCGGUCUG [Fam1A.1 aminoacylation ribozyme variant]	–	1.42	1.16	1.19	1.31
UUUCUUCAAACAAUCGGUCUG [Fam1A.1 aminoacylation ribozyme variant]	–	1.05	1.17	0.864	0.981

Reference: the supplement of paper PMC9233669
